# Laboratory results reported in publication PMC6829517 (International Journal of Molecular Sciences, 2019).
# HELM strings list residues between dots; [ac] is acetyl, [am] amide, other brackets name non-standard units.
# Test: general procedure: recombinant production
# Conditions: late stage modification step, analytical RP-HPLC
substance,measurement,value
"PEPTIDE1{G.G.A.G.H.V.P.E.Y.F.[dV].G.I.G.T.P.I.S.F.Y.G}$PEPTIDE1,PEPTIDE1,1:R1-8:R3$$$V2.0",final HPLC purity,> 99.9%
